The test addresses KvAP wild type, archaeal voltage-gated potassium channel from Aeropyrum pernix, in DM detergent micelles (Aeropyrum pernix) (UniProt Q9YDF8). In words: SDS-PAGE; peak fraction of SEC of KvAP in DM micelles; Coomassie-stained gel; both purified.

No constants are given. Whether binding was seen depends on the method and setting. Some entries that bind do so weakly or less than the wild type. Sequences can lack the tags named with a protein.

B1: KvAP wild type, archaeal voltage-gated potassium channel from Aeropyrum pernix, in DM detergent micelles (natural protein)
chain: GGRVRNIGDVMEHPLVELGVSYAALLSVIVVVVEYTMQLSGEYLVRLYLVDLILVIILWADYAYRAYKSGDPAGYVKKTLYEIPALVPAGLLALIEGHLAGLGLFRLVRLLRFLRILLIISRGSKFLSAIADAADKIRFYHLFGAVMLTVLYGAFAIYIVEYPDPNSSIKSVFDALWWAVVTATTVGYGDVVPATPIGKVIGIAVMLTGISALTLLIGTVSNMFQKILVGEPEPSCSPAKLAEMVSSMSEEEFEEFVRTLKNLRRLENSMK
notes: voltage-gated potassium channel KvAP, Aeropyrum pernix; native cysteine printed as C260; Labelling with AF647 maleimide failed in detergent, so the protein was unlabelled; also called wild-type KvAP; source: E. coli C43, pET21a-derived vector, membranes solubilised in DM, purified (Ni-NTA, SEC)
On to B1, for which the binding result is “binds”.

The record behind these values is paper PMC11852578, “Enhanced Site-Specific Fluorescent Labeling of Membrane Proteins Using Native Nanodiscs” (Biomolecules, 2025).
